Data as given in PubChem BioAssay AID493246 (Drosophila RNAi Screening Center, 2011)

Purpose: 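Identify essential fly genes by loss of cell viability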 (primary screen)
System: Drosophila Kc and S2R+ cells
Reagents: long dsRNA against Drosophila genes
Measurement: 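Raw, unnormalised count of remaining cells in each well; per-plate z-scores of cell number underlie the calls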
Reading the numbers: Kc cell number and S2R+ cell number: higher = more cells remaining
Rule for the call: 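Active when the per-plate z-score of cell number is 3 or more in the direction of fewer cells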
The screen tested about 21,000 reagents; below is an unselected part of those that have a named target and a result. In the full data, 429 (2%) were called active. 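Values are raw and not normalised between plates; calls rest on per-plate z-scores that were not deposited.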 A number with no mark means an inactive call. The record does not give: the amount of reagent, the time to read-out.

Depletion of lncRNA:CR40629 (GeneID 10178881) [DRSC20959] came out at: Kc cell number, rep 1 = 1.68e6; Kc cell number, rep 2 = 1.74e6; S2R+ cell number, rep 1 = 1.28e6; S2R+ cell number, rep 2 = 1.26e6.
PolE4 (GeneID 37560) [DRSC04105] showed Kc cell number, rep 1 = 1.69e6; Kc cell number, rep 2 = 1.68e6; S2R+ cell number, rep 1 = 1.26e6; S2R+ cell number, rep 2 = 1.42e6.
CG42710 (GeneID 10178945) [DRSC01034] showed Kc cell number, rep 1 = 1.43e6; Kc cell number, rep 2 = 1.41e6; S2R+ cell number, rep 1 = 9.84e5; S2R+ cell number, rep 2 = 1.09e6.
With knock-down of Cep135 (GeneID 39647) [DRSC09345], the record shows Kc cell number, rep 1 = 1.66e6; Kc cell number, rep 2 = 1.78e6; S2R+ cell number, rep 1 = 1.13e6; S2R+ cell number, rep 2 = 1.31e6.
Cep135 (GeneID 39647) [DRSC10244] scored Kc cell number, rep 1 = 1.45e6; Kc cell number, rep 2 = 1.50e6; S2R+ cell number, rep 1 = 1.25e6; S2R+ cell number, rep 2 = 1.27e6.
CG5892 (GeneID 42522) [DRSC15910] showed Kc cell number, rep 1 = 1.36e6; Kc cell number, rep 2 = 1.38e6; S2R+ cell number, rep 1 = 1.00e6; S2R+ cell number, rep 2 = 9.63e5.

No new results follow: entries from further up.
Cep135 (GeneID 39647) [DRSC10244] | Kc cell number, rep 1: 1.45e6; Kc cell number, rep 2: 1.50e6; S2R+ cell number, rep 1: 1.25e6; S2R+ cell number, rep 2: 1.27e6
CG5892 (GeneID 42522) [DRSC15910] | Kc cell number, rep 1: 1.36e6; Kc cell number, rep 2: 1.38e6; S2R+ cell number, rep 1: 1.00e6; S2R+ cell number, rep 2: 9.63e5

The results go on:
For UQCR-14L (GeneID 43369) [DRSC15288], the values are Kc cell number, rep 1 = 1.57e6; Kc cell number, rep 2 = 1.56e6; S2R+ cell number, rep 1 = 1.03e6; S2R+ cell number, rep 2 = 1.19e6.
After knock-down of Tsp42Er (GeneID 35629) [DRSC06183] the results were Kc cell number, rep 1 = 1.56e6; Kc cell number, rep 2 = 1.75e6; S2R+ cell number, rep 1 = 1.33e6; S2R+ cell number, rep 2 = 1.53e6.
Knock-down of mwh (GeneID 38131) [DRSC08382] came out at: Kc cell number, rep 1 = 1.64e6; Kc cell number, rep 2 = 1.56e6; S2R+ cell number, rep 1 = 1.04e6; S2R+ cell number, rep 2 = 1.57e6.
Depletion of CG11672 (GeneID 40977) [DRSC14344] resulted in: Kc cell number, rep 1 = 1.70e6; Kc cell number, rep 2 = 1.92e6; S2R+ cell number, rep 1 = 1.24e6; S2R+ cell number, rep 2 = 1.39e6.
Knock-down of CG30385 (GeneID 246585) [DRSC06031] resulted in: Kc cell number, rep 1 = 1.66e6; Kc cell number, rep 2 = 1.69e6; S2R+ cell number, rep 1 = 1.33e6; S2R+ cell number, rep 2 = 1.54e6.
Knock-down of Rab18 (GeneID 44360) [DRSC18702] came out at: Kc cell number, rep 1 = 5.64e5; S2R+ cell number, rep 1 = 4.12e5.
Knock-down of Klp64D (GeneID 38611) [DRSC11204] came out at: Kc cell number, rep 1 = 1.35e6; Kc cell number, rep 2 = 1.58e6; S2R+ cell number, rep 1 = 1.16e6; S2R+ cell number, rep 2 = 1.21e6.
After knock-down of PpD3 (GeneID 49779) [DRSC16796], the screen gave Kc cell number, rep 1 = 1.49e6; Kc cell number, rep 2 = 1.49e6; S2R+ cell number, rep 1 = 1.29e6; S2R+ cell number, rep 2 = 1.30e6.
